{"source": "patent US20110166079A1", "about": "“METHODS OF TREATING CANCER WITH APOE PEPTIDES” (COGNOSCI, INC., priority 2008, published 2011)", "key": {"[1]": {"tested_on": "TCL1 transgenic mice", "settings": "relative to untreated controls given saline; cited from earlier work"}, "[2]": {"tested_on": "peripheral blood mononuclear cells (PBMC)", "assay": "Cytotoxicity on PBMC from normal volunteers", "format": "cell-based, human", "settings": "PBMC versus CLL cells"}, "[3]": {"tested_on": "B-CLL cells", "assay": "Cytotoxicity on B-CLL cells from CLL patients (MTS assay)", "settings": "read-out: EC50 for cytotoxicity in CLL cells; additional B-CLL cells from patients, FIG. 4", "protocol": "To determine whether COG peptides could counteract the overactivation of the Akt/NFkB pathway in B-CLL cells and effectively induce apoptosis, cytotoxicity testing was performed on freshly isolated B-CLL cells from CLL patients with COG peptides. Blood from CLL patients was collected and CD5+/CD19+ CLL cells were isolated using the RosetteSep™ Human B Cell Enrichment Cocktail. This method depletes whole blood of T cells, monocytes, and NK cells using a proprietary antibody cocktail containing anti-CD14, anti-CD2 and anti-CD16 antibodies to remove T cells, monocytes, and NK cells, respectively. The antibody cocktail crosslinks unwanted cells in human whole blood to multiple red blood cells forming immunorosettes thereby increasing the density of the rosetted cells, such that they pellet along with the free RBCs when centrifuged over a buoyant density medium such as Ficoll-Paque®. The highly enriched B-cell or B-CLL cells are left at the interface between Ficoll and the plasma.\nCOG peptides were applied to the isolated B-CLL cells (0.25×10^6 cells/well in a 96 well plate) for 72 hours, after which viable cells were assessed using the MTS assay ([…]).\nAdditional B-CLL cells and peripheral blood mononuclear cells (PBMC; i.e., normal B cells) were isolated from leukemia patients and normal volunteers, respectively, and were treated with a range of COG112 concentrations."}}, "note": "For some of these results: The name of at least one read-out is uncertain. For some of these results: At least one compound was matched to its structure with a doubt left."}
{"compound": "Nc1nc(F)nc2c1ncn2[C@@H]1O[C@H](CO)[C@@H](O)[C@@H]1O", "note": "[Fludarabine, fludarabine]", "values": [{"measurement": "spleen size", "setting": "[1]", "value": "reduced"}, {"measurement": "white cell counts", "setting": "[1]", "value": "reduced"}]}
{"compound": "Ac-RQIKIWFQNRRMKWKKCLRVRLASHLRKLRKRLL-NH2 (N-terminus and C-terminus assumed) [COG112]", "values": [{"measurement": "EC50 in PBMC higher than in CLL cells", "setting": "[2]", "value": "~2", "unit": "log units"}, {"measurement": "EC50", "setting": "[3]", "value": "~225", "unit": "nM"}]}
